For one test, the system named is Pseudomonas aeruginosa. In words: Antibacterial activity against Pseudomonas aeruginosa ATCC 9027 at 50 mg/ml after 24 hrs by disc diffusion method. The test is classed as functional, organism-based. Background: In agar diffusion tests the substance spreads into inoculated agar from a disc or well.
The test system of the next test is Candida albicans. In words: Antifungal activity against Candida albicans ATCC 10231 at 10 mg/ml after 24 hrs by disc diffusion method. The test is classed as functional, organism-based.

With GENTAMICIN, the inhibition zone (IZ) with Pseudomonas aeruginosa stood at 22 mm.
For the sequence NYSTATIN, in the test on Candida albicans, the inhibition zone (IZ) is 20 mm.

(Values after ChEMBL document CHEMBL2069265, “Synthesis and biological evaluation of optically active conjugated γ- and δ-lactone derivatives” (2012).)
